From PMC5799368
No constants are given. Whether binding was seen depends on the method and setting. For some of these results: In cells and extracts the contact can be indirect. Some entries that bind do so weakly or less than the wild type. For some of these results: Where a sequence is shown, tags or fusion partners need not be part of it.

How the values were obtained:
[1] = target: AR-V7, ectopically overexpressed in 293T cells (UniProt P10275); assay: co-IP; lysates of 293T cells transfected with full-length wild-type AR, AR-V7 or AR-V^e567s; IP with anti-AR or anti-BMI1 antibody, rabbit IgG as control
[2] = target: androgen receptor (AR), full length, endogenous (human (endogenous in C4-2, 22Rv1, LuCaP PDX tissue)) (UniProt P10275); assay: co-IP; fractions #16 and #26 of the size-exclusion chromatography of C4-2 nuclear extracts; IP with anti-BMI1, anti-AR or anti-RING1B, rabbit IgG as control
[3] = target: androgen receptor (AR), full length, endogenous (human (endogenous in C4-2, 22Rv1, LuCaP PDX tissue)) (UniProt P10275); assay: co-IP; total lysate of C4-2 cells, endogenous proteins; IP with anti-AR, anti-BMI1 or anti-RING1B, rabbit IgG as control; NP-40 lysis buffer, antibodies at 4 °C overnight
[4] = target: androgen receptor (AR), full length, endogenous (human (endogenous in C4-2, 22Rv1, LuCaP PDX tissue)) (UniProt P10275); assay: co-IP; nuclear extracts of 22Rv1 cells grown in charcoal-stripped serum medium (androgen-depleted) for 48 h
[5] = target: AR variant AR-V7, endogenous in 22Rv1 cells (human (endogenous in 22Rv1)) (UniProt P10275); assay: as above
Halo-AR (full length) = Halo-AR (full length) (UniProt P10275); assay: pull-down; lysates of 293T cells transfected with Halo-AR constructs or empty vector; halo-tag magnetic beads, immunoblot
[6] = target: androgen receptor (AR), full length, endogenous (human (endogenous in C4-2, 22Rv1, LuCaP PDX tissue)) (UniProt P10275); assay: co-IP; total lysate of 22Rv1 cells, endogenous proteins; IP with anti-AR, anti-BMI1 or anti-RING1B, rabbit IgG as control
[7] = target: AR variant AR-V7, endogenous in 22Rv1 cells (human (endogenous in 22Rv1)) (UniProt P10275); assay: as above
[8] = target: androgen receptor (AR), full length, endogenous (human (endogenous in C4-2, 22Rv1, LuCaP PDX tissue)) (UniProt P10275); assay: co-IP; lysates of CRPC patient-derived xenograft tissues LuCaP 35CR and 86.2CR; anti-BMI1 or anti-AR antibody, rabbit IgG as control
[9] = target: BMI1 (B lymphoma Mo-MLV insertion region 1) (human (endogenous in C4-2, 22Rv1, LuCaP PDX tissue, 293T)) (UniProt P35226); assay: co-IP; fractions #16 and #26 of the size-exclusion chromatography of C4-2 nuclear extracts; IP with anti-BMI1, anti-AR or anti-RING1B, rabbit IgG as control
[10] = target: BMI1 (B lymphoma Mo-MLV insertion region 1) (human (endogenous in C4-2, 22Rv1, LuCaP PDX tissue, 293T)) (UniProt P35226); assay: SEC; C4-2 nuclear extract (5 mg) on Sephacryl S-300 HR column, fractions immunoblotted
[11] = target: BMI1 (B lymphoma Mo-MLV insertion region 1) (human (endogenous in C4-2, 22Rv1, LuCaP PDX tissue, 293T)) (UniProt P35226); assay: co-IP; total lysate of C4-2 cells, endogenous proteins; IP with anti-AR, anti-BMI1 or anti-RING1B, rabbit IgG as control; NP-40 lysis buffer, antibodies at 4 °C overnight
[12] = target: BMI1 (B lymphoma Mo-MLV insertion region 1) (human (endogenous in C4-2, 22Rv1, LuCaP PDX tissue, 293T)) (UniProt P35226); assay: co-IP; lysates of 293T cells transfected with Halo-AR constructs or empty vector; IP with anti-BMI1 antibody, immunoblot
[13] = target: RING1B of the in vitro-binding assay (Fig. 3d) (UniProt Q99496); assay: co-IP; in vitro-binding assay: GST-mBMI1 constructs incubated with RING1B for 12 h, IP with anti-RING1B antibody; both purified
[14] = target: T1, androgen receptor (AR), full length, endogenous (human (endogenous in C4-2, 22Rv1, LuCaP PDX tissue)), P10275; assay: co-IP; fractions #16 and #26 of the size-exclusion chromatography of C4-2 nuclear extracts; IP with anti-BMI1, anti-AR or anti-RING1B, rabbit IgG as control; settings: remark: other sources report otherwise
T1 chain: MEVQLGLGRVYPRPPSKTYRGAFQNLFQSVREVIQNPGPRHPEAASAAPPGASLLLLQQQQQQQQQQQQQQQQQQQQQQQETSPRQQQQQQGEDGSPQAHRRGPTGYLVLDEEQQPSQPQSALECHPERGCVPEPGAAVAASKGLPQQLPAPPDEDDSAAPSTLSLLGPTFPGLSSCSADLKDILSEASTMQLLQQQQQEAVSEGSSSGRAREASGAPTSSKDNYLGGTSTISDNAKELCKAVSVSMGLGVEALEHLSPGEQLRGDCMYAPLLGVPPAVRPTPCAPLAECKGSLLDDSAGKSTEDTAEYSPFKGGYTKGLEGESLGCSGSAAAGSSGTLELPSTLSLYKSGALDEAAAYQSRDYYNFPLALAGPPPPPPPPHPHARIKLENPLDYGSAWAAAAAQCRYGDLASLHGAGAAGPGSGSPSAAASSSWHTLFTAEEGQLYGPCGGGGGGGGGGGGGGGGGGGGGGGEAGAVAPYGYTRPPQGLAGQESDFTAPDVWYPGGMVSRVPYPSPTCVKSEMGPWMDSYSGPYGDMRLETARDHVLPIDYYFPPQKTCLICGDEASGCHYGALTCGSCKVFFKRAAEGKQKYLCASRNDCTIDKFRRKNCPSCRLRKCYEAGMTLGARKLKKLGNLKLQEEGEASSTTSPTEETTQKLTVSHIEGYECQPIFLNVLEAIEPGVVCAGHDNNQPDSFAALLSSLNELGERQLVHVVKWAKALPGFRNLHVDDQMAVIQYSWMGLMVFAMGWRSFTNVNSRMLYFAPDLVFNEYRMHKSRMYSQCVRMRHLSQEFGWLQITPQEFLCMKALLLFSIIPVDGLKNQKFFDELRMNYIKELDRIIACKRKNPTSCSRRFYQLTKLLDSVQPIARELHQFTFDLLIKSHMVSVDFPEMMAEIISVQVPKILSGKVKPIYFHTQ

[15] = target: T1, androgen receptor (AR), full length, …; assay: co-IP; total lysate of C4-2 cells, endogenous proteins; IP with anti-AR, anti-BMI1 or anti-RING1B, rabbit IgG as control; NP-40 lysis buffer, antibodies at 4 °C overnight; settings: remark: other sources report otherwise
[16] = target: T1, androgen receptor (AR), full length, …; assay: co-IP; total lysate of 22Rv1 cells, endogenous proteins; IP with anti-AR, anti-BMI1 or anti-RING1B, rabbit IgG as control; settings: remark: other sources report otherwise
[17] = target: T2, RING1B (ring finger protein 2), endogenous (human (endogenous in C4-2, 22Rv1)), Q99496; assay: co-IP; fractions #16 and #26 of the size-exclusion chromatography of C4-2 nuclear extracts; IP with anti-BMI1, anti-AR or anti-RING1B, rabbit IgG as control; settings: remark: other sources report otherwise
T2 chain: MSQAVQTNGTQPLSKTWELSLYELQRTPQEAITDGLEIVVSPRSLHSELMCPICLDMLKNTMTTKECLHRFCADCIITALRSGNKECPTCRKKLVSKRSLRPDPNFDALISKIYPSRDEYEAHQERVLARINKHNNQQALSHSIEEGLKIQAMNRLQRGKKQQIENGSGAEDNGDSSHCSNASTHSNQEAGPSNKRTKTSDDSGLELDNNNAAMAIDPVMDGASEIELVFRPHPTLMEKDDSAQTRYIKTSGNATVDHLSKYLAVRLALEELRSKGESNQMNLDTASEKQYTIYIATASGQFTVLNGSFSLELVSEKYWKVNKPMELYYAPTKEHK

Molecule: BMI1 (B lymphoma Mo-MLV insertion region 1) (from UniProt P35226 1-326)
- binding [1]: binds
- binding [2]: binds
- binding [3]: binds
- binding [4]: binds
- binding [5]: binds
- binding (Halo-AR (full length)): binds
- binding [6]: binds
- binding [7]: binds
- binding [8]: binds

Molecule: RING1B (ring finger protein 2), endogenous (from UniProt Q99496 1-336)
- binding [7]: no binding

Molecule: androgen receptor (AR), full length, endogenous (from UniProt P10275 1-920)
- binding [9]: binds
- binding [10]: binds
- binding [11]: binds

Molecule: Halo-AR (full length) (from UniProt P10275 1-920)
- binding [12]: binds

B1: GST fusion protein containing full-length mBMI1 (protein, UniProt P25916 1-324)
chain: MHRTTRIKITELNPHLMCVLCGGYFIDATTIIECLHSFCKTCIVRYLETSKYCPICDVQVHKTRPLLNIRSDKTLQDIVYKLVPGLFKNEMKRRRDFYAAHPSADAANGSNEDRGEVADEEKRIITDDEIISLSIEFFDQSRLDRKVNKEKPKEEVNDKRYLRCPAAMTVMHLRKFLRSKMDIPNTFQIDVMYEEEPLKDYYTLMDIAYIYTWRRNGPLPLKYRVRPTCKRMKMSHQRDGLTNAGELESDSGSDKANSPAGGVPSTSSCLPSPSTPVQSPHPQFPHISSTMNGTSNSPSANHQSSFASRPRKSSLNGSSATSSG
- binding [13]: binds

B2: RING1B (ring finger protein 2), endogenous, Q99496 1-336 (protein)
chain: MSQAVQTNGTQPLSKTWELSLYELQRTPQEAITDGLEIVVSPRSLHSELMCPICLDMLKNTMTTKECLHRFCADCIITALRSGNKECPTCRKKLVSKRSLRPDPNFDALISKIYPSRDEYEAHQERVLARINKHNNQQALSHSIEEGLKIQAMNRLQRGKKQQIENGSGAEDNGDSSHCSNASTHSNQEAGPSNKRTKTSDDSGLELDNNNAAMAIDPVMDGASEIELVFRPHPTLMEKDDSAQTRYIKTSGNATVDHLSKYLAVRLALEELRSKGESNQMNLDTASEKQYTIYIATASGQFTVLNGSFSLELVSEKYWKVNKPMELYYAPTKEHK
- binding [14]: no binding
- binding [15]: no binding
- binding [16]: no binding

B3: androgen receptor (AR), full length, endogenous, P10275 1-920 (protein)
chain: MEVQLGLGRVYPRPPSKTYRGAFQNLFQSVREVIQNPGPRHPEAASAAPPGASLLLLQQQQQQQQQQQQQQQQQQQQQQQETSPRQQQQQQGEDGSPQAHRRGPTGYLVLDEEQQPSQPQSALECHPERGCVPEPGAAVAASKGLPQQLPAPPDEDDSAAPSTLSLLGPTFPGLSSCSADLKDILSEASTMQLLQQQQQEAVSEGSSSGRAREASGAPTSSKDNYLGGTSTISDNAKELCKAVSVSMGLGVEALEHLSPGEQLRGDCMYAPLLGVPPAVRPTPCAPLAECKGSLLDDSAGKSTEDTAEYSPFKGGYTKGLEGESLGCSGSAAAGSSGTLELPSTLSLYKSGALDEAAAYQSRDYYNFPLALAGPPPPPPPPHPHARIKLENPLDYGSAWAAAAAQCRYGDLASLHGAGAAGPGSGSPSAAASSSWHTLFTAEEGQLYGPCGGGGGGGGGGGGGGGGGGGGGGGEAGAVAPYGYTRPPQGLAGQESDFTAPDVWYPGGMVSRVPYPSPTCVKSEMGPWMDSYSGPYGDMRLETARDHVLPIDYYFPPQKTCLICGDEASGCHYGALTCGSCKVFFKRAAEGKQKYLCASRNDCTIDKFRRKNCPSCRLRKCYEAGMTLGARKLKKLGNLKLQEEGEASSTTSPTEETTQKLTVSHIEGYECQPIFLNVLEAIEPGVVCAGHDNNQPDSFAALLSSLNELGERQLVHVVKWAKALPGFRNLHVDDQMAVIQYSWMGLMVFAMGWRSFTNVNSRMLYFAPDLVFNEYRMHKSRMYSQCVRMRHLSQEFGWLQITPQEFLCMKALLLFSIIPVDGLKNQKFFDELRMNYIKELDRIIACKRKNPTSCSRRFYQLTKLLDSVQPIARELHQFTFDLLIKSHMVSVDFPEMMAEIISVQVPKILSGKVKPIYFHTQ
- binding [17]: no binding
